Inconclusive means that the source gave no clear call. Such entries were picked first, then a sample of the others. Potencies beside an inconclusive call are fits to weak or partial responses and may not hold up. Calls of active or inactive are those of the source. The call rests on the fitted dose curve; in most records, active means well fitted inhibition curve with a large enough effect; inconclusive means small, poorly fitted or top-dose-only effect, or effect the other way; inactive means flat fitted curve, though single readings scatter.
Each molecule was assayed against Lysosomal acid glucosylceramidase (Homo sapiens) (UniProt P04062) (assay: qHTS Assay for Inhibitors and Activators of N370S glucocerebrosidase as a Potential Chaperone Treatment of Gaucher Disease: Purified N370S Glucocerebrosidase Cleavage of Glucosylceramide). Conditions: purified N370S GCase; series mostly up to 77.6 µM; activity change, negative = inhibition: at the top concentration.
Excerpt: NIH Chemical Genomics Center [NCGC]
NIH Molecular Libraries Probe Production Centers Network [MLPCN]
Assay Submitter (PI): Wei Zheng
Glucocerebrosidase (GC) catalyzes the hydrolysis of beta-glucocerebroside to glucose and ceramide in lysosomes. Mutations in the glucocerebrosidase gene result in Gaucher disease, an autosomal recessive lysosomal storage disorder. Many of the mutations encountered in patients with Gaucher disease are missense alterations that may cause misfolding, decreased stability and/or mistrafficking of this lysosomal protein. […] These inhibitors include iminosugar analogs and three non-iminosugar inhibitors identified from a previous HTS of 62,000 compounds with the wild type recombinant enzyme. However, the enhancement of enzyme activity by the chaperone action of an enzyme inhibitor must be balanced against the direct inhibition of the enzyme. An enzyme activator could also function as a chaperone by binding to the enzyme and helping to correct its misfolding and mistrafficking. While activators for GC have not yet been identified, they may have better therapeutic potential than inhibitors. Therefore the discovery and development of chemical activators may provide a new strategy for the chaperone therapy.
We have optimized a new assay using N370S mutant GC derived from the spleen of a Gaucher patient. […] In addition, the MLPCN compound library has expanded, which increases the chance of finding new and better probes.
This assay characterizes compound activity using purified, mutant enzyme cleavage of the native substrate for the enzyme instead of mutant enzyme from tissue homogenate. Compound activity differences may be due to the absence of endogenous cofactors found in tissue homogenate as well as inherent differences in enzyme stability and catalytic activity using the difference substrates.
NCGC Assay Protocol Summary:
This is an enzyme assay using glucosylceramide from soy (Avanti Polar Lipids Catalog #: 131304P) as the substrate and recombinant human glucocerebrosidase as the enzyme preparation. Upon hydrolysis of the substrate, the glucose product can be detected using the Amplex Red Glucose Oxidase Assay Kit (Invitrogen catalog #: A22189). The product of this reaction can be read with a fluorescence plate reader with an excitation at 573 nm and an emission at 610 nm. Data were normalized to the controls for basal activity (without enzyme) and 100% activity (with enzyme). The AC50 values were determined from concentration-response data modeled with the standard Hill equation.
Assay buffer for enzyme reaction: 50 mM citric acid (titrated with potassium phosphate to pH 5.9), 0.01% Tween-20 (pH 5.9 is an optimal condition for this enzyme assay)
Assay buffer for Amplex Red reaction: Tris-HCl, pH 7.5
1536-well assay protocol for the glucocerebrosidase assay:
(1) Add 2 ul/well glucocerebrosidase enzyme solution (5 nM final)
(2) Add 23 nL compounds in DMSO solution. The final titration was 0.7 nM to 77 uM.
(3) Add 1 ul of glucosylceramide solution (50 uM final)
(4) Incubate at 37C for 40 min
(5) Add 2 ul tris-HCl buffer with Amplex Red reagents
(6) Incubate 45 min at room temperature.
(7) Detect the assay plate in a ViewLux plate reader (PerkinElmer) with Ex=573 nm and Em=610nm.
Keywords: Glucocerebrosidase, beta-glucosidase, Gaucher Disease, pharmacological chaperone, chaperone therapy, high throughput screening, glucocerebrosidase inhibitor, MLSMR, MLSCN, NIH Roadmap, qHTS and NCGC

Amino acid sequences for entries named in this document (tags omitted).
UniProt P04062, whole entry N409S: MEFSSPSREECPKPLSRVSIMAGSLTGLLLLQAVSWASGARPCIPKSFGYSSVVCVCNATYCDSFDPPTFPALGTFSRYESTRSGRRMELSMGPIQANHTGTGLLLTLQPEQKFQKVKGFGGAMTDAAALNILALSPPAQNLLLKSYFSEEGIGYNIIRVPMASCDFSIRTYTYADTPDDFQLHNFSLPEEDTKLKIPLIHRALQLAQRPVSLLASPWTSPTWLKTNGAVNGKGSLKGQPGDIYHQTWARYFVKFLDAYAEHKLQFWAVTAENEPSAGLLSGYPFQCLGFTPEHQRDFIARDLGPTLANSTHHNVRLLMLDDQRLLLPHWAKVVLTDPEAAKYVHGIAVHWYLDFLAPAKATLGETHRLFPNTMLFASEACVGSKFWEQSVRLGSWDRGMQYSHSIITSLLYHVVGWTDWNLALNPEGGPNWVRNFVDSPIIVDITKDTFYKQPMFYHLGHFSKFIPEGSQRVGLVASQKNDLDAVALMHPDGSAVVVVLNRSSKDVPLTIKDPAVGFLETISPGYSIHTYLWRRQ

| SMILES | activity change, negative = inhibition | Potency |
| --- | --- | --- |
| O=C(Nc1cc(Br)ccc1O)c1cnn2c(C(F)F)cc(C3CC3)nc12 | inactive: -28.3% | – |
| O=c1cc(N2CCCCC2)c(-c2ccccc2)nn1Cc1c(Cl)cccc1Cl | – | inconclusive: 11.2 µM [activator, full curve, poor fit] |
| Nc1nc(-c2ccccc2)c(N=Nc2ccc(Cl)cc2)s1 | inactive: -9.16% | – |
| CCc1ccc(NC(=O)c2cnn3c(C(F)F)cc(C)nc23)cc1 | inactive: -7.13% | – |
| CC(=O)Nc1ccc(NC(=O)COc2ccccc2C(=O)Nc2cccc(Cl)c2Cl)cc1 | inactive: -13.6% | – |

From PubChem BioAssay AID2596 (National Center for Advancing Translational Sciences (NCATS), 2010)
